Assay results reported in PubChem BioAssay AID540256 (National Center for Advancing Translational Sciences (NCATS), 2011).
The campaign covered roughly 300,000 compounds. About 3,700 (1.2%) were called active. The shares of active, inactive and inconclusive entries below differ from those in the screen. Calls follow the shape of the full dose curve; tested in HEK293 cells. Potencies beside an inconclusive call are fits to weak or partial responses and may not hold up.

Assay: qHTS for Inhibitors of binding or entry into cells for Lassa Virus; also: nearly all actives have a fitted effect of over 50% in size
Conditions: Lassa virus pseudotype entry inhibition, cell reporter; activity change, negative = inhibition: at 37.9 µM (top of the series) unless noted
% is scaled to controls: 0 for no effect and ±100 for the full control effect; potency is read from the fitted curve at half-maximal effect.

Q: For `CN(C(=O)COC(=O)/C=C/c1ccc(S(=O)(=O)N2CCc3ccccc32)cc1)C1CCS(=O)(=O)C1` (configuration not stated), which Potency is on record?
A: inconclusive: 15.8 µM [activator, single point]

Q: Which “activity change, negative = inhibition” value does the source give for `COc1ccc(CCNC(=O)C(=O)c2cn(CC(=O)N3CCOCC3)c3ccccc23)cc1OC` here?
A: inactive: 0.943% [at 46.1 µM]

Q: With `O=C(CCn1c(=O)oc2ccccc21)n1c(=O)oc2ccccc21` as the compound, how does the “activity change, negative = inhibition” value read?
A: inactive: -1.3%

Q: Which Potency does the source give for `Cc1ccc(C)c(CSc2ccc3nnc(-c4ccccn4)n3n2)c1` here?
A: inconclusive: 35.5 µM [inhibitor, single point]

Q: With `CC(C)Oc1ccc(CNC(=O)c2cc3ccccn3n2)cc1` as the compound, how does the Potency read?
A: inconclusive: 3.98 µM [inhibitor, full curve, poor fit]

Q: Which Potency does the source give for `COc1ccc(NC(=O)CCc2c(C)nc3nc(CNC(=O)c4cccc(F)c4)nn3c2C)cc1OC` here?
A: inconclusive: 11.2 µM [inhibitor, single point]

Q: For `Cc1ccc2c(c1)cc(CN(Cc1ccco1)C(=O)COc1ccccc1)c1nnnn12`, which Potency is on record?
A: inconclusive: 23.1 µM [inhibitor, single point]

Q: For `COc1ccccc1NS(=O)(=O)c1cccc(C(=O)N/N=C(\C)c2ccc(-n3ccnc3)cc2)c1`, which Potency is on record?
A: inconclusive: 32.6 µM [inhibitor, single point]

Q: For `CCCCOCC1CN(CCCC)S(=O)(=O)c2c(Oc3ccc(C(C)C)cc3)cccc2O1` (configuration not stated), which Potency is on record?
A: inconclusive: 25 µM [inhibitor, single point]

Q: With `Cn1ccc(C(=O)OCC(=O)Nc2cccc(Cl)c2)n1` as the compound, how does the “activity change, negative = inhibition” value read?
A: inactive: 1.86%

Q: Which Potency does the source give for `CCN1CCN(c2cc(N3CCc4ccccc4C3)c(F)cc2[N+](=O)[O-])CC1` here?
A: inconclusive: 10 µM [inhibitor, partial curve, poor fit]

Q: Which Potency does the source give for `O=C(CSCc1c(F)cccc1Cl)NCc1ccco1` here?
A: inconclusive: 3.26 µM [inhibitor, partial curve, poor fit]

Q: For `CCOc1ccc(NC(=O)CCN2CCN(c3ccccc3)CC2)cc1`, which Potency is on record?
A: inconclusive: 5.17 µM [inhibitor, partial curve, poor fit]

Q: With `Cc1cc(C)c(C)c(S(=O)(=O)Nc2cccc(S(=O)(=O)Nc3ccccc3C(=O)O)c2)c1C` as the compound, how does the “activity change, negative = inhibition” value read?
A: inactive: 7.04%

Q: With `CCC(=O)Nc1ccccc1C(=O)OCC(=O)c1ccccc1` as the compound, how does the Potency read?
A: inconclusive: 35.5 µM [inhibitor, single point]

Q: With `Cc1ccc(-n2c(Cc3ccccc3)nnc2SCc2nc(-c3cccs3)no2)cc1` as the compound, how does the Potency read?
A: inconclusive: 15.8 µM [inhibitor, single point]

Q: For `CC1=CC(c2ccc(Cl)cc2)n2nc(NC(=O)c3ccccc3)nc2N1` (configuration not stated), which Potency is on record?
A: inconclusive: 22.4 µM [inhibitor, partial curve, poor fit]
